Data from patent US20060121083A1 (priority 2003, published 2006).
Peptide text beside a SMILES is read from it.

Assay: Peptide: Dacron binding assay (unbound fraction by HPLC)
[1] = graft soaked in 50 micrograms/mL peptide solution

Compound | Peptide bound to the graft prior to implantation (graft soaked in 50 micrograms/mL) [micrograms] | Mean bound amount of peptide on Dacron graft [1] | Fraction of 50 micrograms peptide bound to Dacron graft (after 5 hours soaking (data not shown)) [%] | Dacron binding relative to RIP [1]
YSPWTNF (C-terminal amide) [RIP, reference compound] | 6.5±2.5 | 6.5±2.5 micrograms peptide per square centimeter | – | –
CC(C)C[C@H](NC(=O)[C@H](C)N)C(=O)N[C@@H](Cc1c[nH]c2ccccc12)C(=O)N[C@@H](CCCCN)C(=O)N[C@H](C(=O)N[C@@H](CC(C)C)C(=O)N[C@@H](CC(C)C)C(=O)N[C@@H](CCCCN)C(=O)N[C@@H](CCCCN)C(=O)N[C@H](C(=O)N[C@@H](CC(C)C)C(=O)N[C@@H](CCCCN)C(=O)N[C@@H](C)C(N)=O)C(C)C)[C@@H](C)O [DD13] (H-ALWKTLLKKVLKA-NH2; N-terminus assumed) | – | 27±0.5 micrograms peptide per square centimeter | ~100 | about 3 fold
